# Results are given in words; binding and its absence hold for the method and conditions named. In cells and extracts the contact can be indirect. Binding can be weak; no strength is given.
# Amino acid sequences for entries named in this document (tags omitted). A change or cut given only in a name is not applied to a line headed by its entry.
# UniProt O94851: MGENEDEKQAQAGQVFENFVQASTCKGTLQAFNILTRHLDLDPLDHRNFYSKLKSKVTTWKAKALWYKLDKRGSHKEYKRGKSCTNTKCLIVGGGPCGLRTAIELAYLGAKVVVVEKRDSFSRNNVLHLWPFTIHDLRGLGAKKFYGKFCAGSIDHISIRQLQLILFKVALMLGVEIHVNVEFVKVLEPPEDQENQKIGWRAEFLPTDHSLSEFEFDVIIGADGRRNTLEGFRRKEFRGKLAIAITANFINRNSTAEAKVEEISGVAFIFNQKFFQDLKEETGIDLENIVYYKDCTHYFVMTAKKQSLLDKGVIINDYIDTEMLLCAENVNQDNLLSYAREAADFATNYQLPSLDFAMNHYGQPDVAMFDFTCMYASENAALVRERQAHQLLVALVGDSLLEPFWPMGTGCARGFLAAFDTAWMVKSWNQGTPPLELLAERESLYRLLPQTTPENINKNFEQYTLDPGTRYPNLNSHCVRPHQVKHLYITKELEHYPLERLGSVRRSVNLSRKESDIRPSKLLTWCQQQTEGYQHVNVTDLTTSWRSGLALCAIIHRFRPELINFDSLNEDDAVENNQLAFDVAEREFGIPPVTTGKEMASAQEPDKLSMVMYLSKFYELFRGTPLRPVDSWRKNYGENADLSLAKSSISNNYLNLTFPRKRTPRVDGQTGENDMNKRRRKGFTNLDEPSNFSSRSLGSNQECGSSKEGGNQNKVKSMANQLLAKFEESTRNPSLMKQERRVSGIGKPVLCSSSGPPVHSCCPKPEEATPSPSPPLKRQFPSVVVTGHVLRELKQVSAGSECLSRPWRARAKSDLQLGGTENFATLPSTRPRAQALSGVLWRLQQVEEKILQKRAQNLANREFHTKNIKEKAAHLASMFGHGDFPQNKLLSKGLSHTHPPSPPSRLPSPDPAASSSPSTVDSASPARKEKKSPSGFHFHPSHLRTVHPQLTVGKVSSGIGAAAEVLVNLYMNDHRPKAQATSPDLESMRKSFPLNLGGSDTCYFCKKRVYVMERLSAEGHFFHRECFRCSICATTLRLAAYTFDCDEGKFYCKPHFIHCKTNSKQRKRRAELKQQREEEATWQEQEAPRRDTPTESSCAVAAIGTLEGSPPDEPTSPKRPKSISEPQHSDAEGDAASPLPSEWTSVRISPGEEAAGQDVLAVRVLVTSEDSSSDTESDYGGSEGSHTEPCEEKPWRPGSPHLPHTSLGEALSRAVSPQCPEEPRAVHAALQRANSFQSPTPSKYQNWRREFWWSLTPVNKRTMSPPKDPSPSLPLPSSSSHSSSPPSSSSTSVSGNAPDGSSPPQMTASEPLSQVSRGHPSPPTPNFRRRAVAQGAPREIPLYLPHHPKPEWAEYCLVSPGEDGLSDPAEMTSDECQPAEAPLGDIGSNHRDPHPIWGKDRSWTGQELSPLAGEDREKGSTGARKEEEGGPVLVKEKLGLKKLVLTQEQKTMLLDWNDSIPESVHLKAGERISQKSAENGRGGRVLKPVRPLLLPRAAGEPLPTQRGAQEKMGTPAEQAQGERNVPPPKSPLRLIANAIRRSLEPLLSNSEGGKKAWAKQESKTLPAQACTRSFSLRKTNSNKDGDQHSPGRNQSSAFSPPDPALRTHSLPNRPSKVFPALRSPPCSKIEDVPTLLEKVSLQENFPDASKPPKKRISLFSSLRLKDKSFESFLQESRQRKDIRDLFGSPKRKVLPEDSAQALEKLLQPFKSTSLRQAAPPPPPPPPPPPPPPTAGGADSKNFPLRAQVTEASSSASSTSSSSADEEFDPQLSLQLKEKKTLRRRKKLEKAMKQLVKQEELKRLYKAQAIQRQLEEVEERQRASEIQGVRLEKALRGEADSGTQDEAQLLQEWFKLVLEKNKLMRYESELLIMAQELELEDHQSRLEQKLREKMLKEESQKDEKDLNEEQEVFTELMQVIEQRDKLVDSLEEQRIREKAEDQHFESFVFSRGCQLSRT
# UniProt Q9ULV4: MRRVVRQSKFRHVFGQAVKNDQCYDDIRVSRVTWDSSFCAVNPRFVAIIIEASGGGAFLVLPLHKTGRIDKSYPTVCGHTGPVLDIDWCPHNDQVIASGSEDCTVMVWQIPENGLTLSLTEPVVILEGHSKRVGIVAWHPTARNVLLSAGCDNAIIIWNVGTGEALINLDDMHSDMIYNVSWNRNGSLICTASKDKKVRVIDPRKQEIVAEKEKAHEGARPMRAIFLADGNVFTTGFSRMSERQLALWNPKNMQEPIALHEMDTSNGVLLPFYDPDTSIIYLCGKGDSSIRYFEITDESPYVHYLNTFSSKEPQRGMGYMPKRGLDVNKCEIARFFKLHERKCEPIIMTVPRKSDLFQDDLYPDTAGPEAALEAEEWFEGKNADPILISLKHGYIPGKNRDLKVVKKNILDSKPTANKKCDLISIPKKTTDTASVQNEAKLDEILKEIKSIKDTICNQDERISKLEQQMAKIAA
# Target: GFP-tagged MICAL2 (human) (UniProt O94851)
# Test: co-IP; GFP-Trap agarose bead pulldown from lysates of HeLa cells stably expressing the GFP-tagged bait; cells treated with 200 nM Latrunculin A for 1 h; lysis buffer 50 mM Hepes pH 7.5, 150 mM NaCl, 1.5 mM MgCl2, 1 mM EGTA, 1% Triton X-100, 10% glycerol, 200 nM Latrunculin A; read by immunoblot
substance,measurement,value
coronin 1C (endogenous) (from UniProt Q9ULV4 1-474),binding,binds

# — publication PMC8193582
